Data as given in the supplement of paper PMC3334620.
Whole data set: some 33,000 sequences, median “E-score (-0.5 to 0.5)” near -8e-05, cut for the highest 2% near 0.23. The list shows a part of the results.

The sequences below were run against T1, Nrg2 (UniProt P38082) (assay: PBM E-score (8-mer binding enrichment) (E-score (-0.5 to 0.5)); higher = stronger / more preferred TF binding). Conditions: protein concentration: 100 nM; construct: GST-full length.
T1 sequence: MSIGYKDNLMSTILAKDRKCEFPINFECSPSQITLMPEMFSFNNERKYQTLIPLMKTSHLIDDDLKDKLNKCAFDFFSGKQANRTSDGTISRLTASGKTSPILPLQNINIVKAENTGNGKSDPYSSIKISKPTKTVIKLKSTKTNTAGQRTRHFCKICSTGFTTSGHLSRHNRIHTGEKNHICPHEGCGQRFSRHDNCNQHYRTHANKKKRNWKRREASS
Summary of the method: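 Yeast transcription factors, full-length or as DNA-binding domains, were expressed with a GST tag using PURExpress in vitro transcription/translation. At about 100-200 nM they were applied to universal all-10-mer Agilent arrays, double-stranded by primer extension on fresh or once-stripped slides. Fluorescent anti-GST detected bound protein, and masliner normalised the scans. E-scores for ungapped eight-base words, pooled with reverse complements, came from the Universal PBM Analysis Suite.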

| Sequence | PBM E-score |
| --- | --- |
| ATCTCATG | 0.0868 |
| AGGGCTCC | -0.233 |
| AACTCAAG | -0.0395 |
| CGAAAGCG | -0.178 |
| ACTTGGCG | -0.138 |
| GCGACCCC | -0.0239 |
| AGTTGGTA | 0.0995 |
| AAGAATAG | -0.0208 |
| AATGGAAC | 0.108 |
| ACCAGAGC | -0.00553 |
| CTACATGC | -0.0136 |
| AAGGAGCT | -0.368 |
| GTCGTATA | 0.00175 |
| ACGGCAAG | 0.0648 |
| CCAGACGA | 0.0228 |
| ATCTGGCA | -0.0821 |
| ACTTGGAA | -0.0605 |
| AATGCCAC | 0.00346 |
| GCAAAGAC | -0.0856 |
| AACAGACG | -0.0618 |
| AAACTTCG | 0.0808 |
| GCATTCAC | 0.0117 |
| ACATCGGC | 0.0304 |
| AAGAATAA | -0.022 |
| ACAATAGT | 0.193 |

| Sequence | PBM E-score |
| --- | --- |
| CATCGGAG | -0.351 |
| CTGATCAA | 0.0271 |
| CCAGCAGA | 0.096 |
| CTGCAAGC | -0.154 |
| GAATAGAC | -0.185 |
| GTTGATCA | 0.123 |
| CCAAAAGG | -0.172 |
| ACATAATA | 0.295 |
| CCTCAATC | 0.0495 |
| ACTGATGA | 0.0842 |
| GAAACCGA | 0.0852 |
| GTGGGTGA | 0.0988 |
| AATCTAGG | 0.0956 |
| AGCGTGTA | -0.107 |
| ACAGTGTG | 0.0482 |
| GGAATTCA | 0.138 |
| ACAAAACT | 0.1 |
| CAAAAGCG | -0.00436 |
| TGACCTCA | -0.167 |
| CACGGGGG | -0.32 |
| GGAGTACA | -0.0248 |
| CAATGCTG | -0.0229 |
| CTTGGCAA | -0.133 |
| AATTAAGT | 0.062 |
| CAGATCTG | 0.0937 |

| Sequence | PBM E-score |
| --- | --- |
| AATTCAGA | 0.0972 |
| CGACAAAC | -0.0817 |
| ACTGGAGC | -0.282 |
| CGTCGTAC | -0.048 |
| GGCACGAA | 0.105 |
| CGTTAGCC | -0.116 |
| TAAGCGGA | -0.0382 |
| ACGCCACT | -0.0795 |
| CCCAACCC | 0.0314 |
| CAGAACTA | 0.0823 |
| ATCCAATA | 0.0988 |
| AGTGTACG | 0.00599 |
| AGCTACCG | -0.163 |
| CCGTTCTC | -0.0977 |
| CGCAGCCG | -0.21 |
| AGAGGGTA | -0.0204 |
| AACTGCTG | -0.181 |
| AAATAGGA | 0.105 |
| CACTGACG | -0.0328 |
| GATAATTA | 0.0635 |
| CGCTCAAA | 0.115 |
| CCCCGGAG | -0.152 |
| AATTCTCT | -0.146 |
| GTCACAAA | -0.132 |
| GCCGCTCC | -0.136 |

| Sequence | PBM E-score |
| --- | --- |
| ACACCTGT | -0.062 |
| CAGTTTGA | 0.0957 |
| CGCTGCAA | -0.011 |
| AAGGCGCT | -0.0358 |
| TATAAACA | 0.0233 |
| TATGTGCA | 0.0106 |
| CGCTGACG | -0.152 |
| AATCTGCC | 0.0761 |
| ACTGGCCA | 0.0205 |
| GTCTCCGA | -0.0812 |
| AAATTAAA | 0.217 |
| ACGAAACA | 0.0539 |
| GTCTGCCA | -0.122 |
| AACGTCTT | -0.041 |
| GTACCCTA | 0.189 |
| GCATCAGA | 0.112 |
| ACTAAACT | 0.143 |
| CGTTTAAC | 0.145 |
| AATTGGCT | 0.136 |
| ATGACAAA | 0.0636 |
| CGAGCTAG | 0.161 |
| AAGCCACC | -0.198 |
| CCTGAGAG | -0.056 |
| ACCCGTTC | 0.21 |
| AACCGCAT | 0.104 |

| Sequence | PBM E-score |
| --- | --- |
| AGTTCGCA | 0.073 |
| ATCGCGAC | 0.0998 |
| CCCAACGG | 0.0588 |
| AGAGGACA | 0.0483 |
| ATCTAACC | 0.0422 |
| GTGTCATA | 0.109 |
| CGAAGGCG | -0.121 |
| GACAGGCC | 0.0283 |
| CGAAAGGC | -0.0186 |
| GCGGCAGA | -0.17 |
| AGTTTGCC | 0.123 |
| AAAATTGA | -0.0279 |
| TGGTCTAA | -0.106 |
| CTACTGTA | 0.0573 |
| CCCTACCA | 0.173 |
| CGCCGGTC | -0.175 |
| CCGAGCCC | -0.117 |
| ATAGTTAA | 0.00917 |
| GTTGAGCA | 0.0601 |
| GAAAGGAC | 0.129 |
| GACAGCTC | -0.0829 |
| GATTGTGA | 0.0114 |
| TACTCTCA | 0.0049 |
| CGAAGCGC | -0.0339 |
| CCGCTTCC | -0.0735 |

4 records drawn at random from the list so far, as already listed:

| Sequence | PBM E-score |
| --- | --- |
| ATCGCGAC | 0.0998 |
| GTGTCATA | 0.109 |
| CGAAGGCG | -0.121 |
| CCCTACCA | 0.173 |

A second format for some results above:
Sequence | PBM E-score
GTGTCATA | 0.109
CGAAGGCG | -0.121
GACAGGCC | 0.0283
CGAAAGGC | -0.0186

Continuation:

| Sequence | PBM E-score |
| --- | --- |
| ATTTACCA | 0.0628 |
| ACAGTTGC | -0.00081 |
| CCACTTAA | 0.0242 |
| AGGTGCTC | -0.215 |
| CATCTACG | 0.0805 |
| AAGAGATC | -0.0271 |
| AAACTCGC | -0.0429 |
| AGCCCCAC | 0.0204 |
| ACAGTGGC | 0.0151 |
| CGTTCAAG | 0.0193 |
| GGGCTGGA | -0.1 |
| GCAGAGGA | 0.0368 |
| AACACAGT | 0.11 |
| TCCCATAA | -0.0342 |
| TACCTCGA | -0.00145 |
| CAGTAACG | -0.0425 |
| GAGAGTAC | -0.0468 |
| GATACCGA | -0.236 |
| GGATACCA | 0.0713 |
| AAGGTCGT | -0.0153 |
| AGGGAGTC | -0.286 |
| AAAGCCTC | -0.232 |
| ATAAATCA | 0.0708 |
| AGTGGAGC | -0.1 |
| AGGTGGCA | 0.0163 |

| Sequence | PBM E-score |
| --- | --- |
| CGGAGCTA | -0.17 |
| TATGCCAA | 0.101 |
| CCGGTGAA | -0.128 |
| AACTTGAC | 0.0147 |
| CTACGGAA | -0.0963 |
| GCGCCGAC | -0.199 |
| CCCTGCAC | 0.14 |
| GCATTAGA | -0.034 |
| AGATGAAG | -0.184 |
| GGCAACCA | -0.0916 |
| GCCTGTTA | -0.062 |
| ACTCATGG | -0.0143 |
| ATTTCTTC | 0.0428 |
| AGGGGCTG | 0.163 |
| CCATTGCA | -0.155 |
| ACCGACCG | -0.00577 |
| AGTTCTAC | -0.205 |
| CAATTGAC | 0.00134 |
| CTCGAACA | 0.0716 |
| ACTTACTG | -0.064 |
| CCGTAGCC | -0.218 |
| CCACCGCC | -0.109 |
| GAGACTCA | -0.122 |
| ATTTGGCA | 0.0425 |
| CTGCTTAA | -0.102 |

| Sequence | PBM E-score |
| --- | --- |
| CTGCCCAG | -0.262 |
| CCAGTTAG | -0.0609 |
| ACAACGTG | -0.0873 |
| CTGAAGTA | -0.0535 |
| CAGCTAAG | -0.094 |
| GGCTAGAC | -0.27 |
| CGGCAACG | -0.0325 |
| CTATCCTA | -0.0404 |
| CGGTAATC | -0.152 |
| AGCATCCA | 0.1 |
| GCAAATCC | 0.0135 |
| CTCCACAC | -0.0605 |
| ATGGTTAG | 0.111 |
| AACCGGAG | 0.00407 |
| GGGGAGCA | -0.291 |
| CTGCAAAG | -0.0255 |
| GCCGCCAC | -0.231 |
| CTACGTAA | -0.167 |
| ATGCCTGC | -0.0561 |
| CATACAGA | 0.0699 |
| ATGGAGGC | -0.224 |
| AAGTTCGA | 0.17 |
| CCTGATCC | 0.0888 |
| CGAGCTTA | -0.0737 |
| GCCGTCAA | -0.128 |

| Sequence | PBM E-score |
| --- | --- |
| AAGCTTGT | 0.0784 |
| GTTTGGCA | -0.0345 |
| CTTCTGCC | -0.0882 |
| AAGGTTTG | 0.0916 |
| AGCGACAA | 0.148 |
| CTGGAGCA | 0.0581 |
| GACGGCTC | -0.165 |
| CCTATCTC | 0.134 |
| TATGGCAA | 0.0645 |
| AAATACCC | 0.175 |
| GCAAAGCA | -0.139 |
| GCTCGGCC | -0.156 |
| AATCGGGA | 0.0375 |
| ACAGTACT | -0.127 |
| CTCCCGTC | 0.0244 |
| AGGGCTCA | 0.00575 |
| CTATCGAC | -0.166 |
| GCCGAAAA | 0.239 |
| CTGTACGC | -0.11 |
